Tested on: sham and CHF rats (coronary artery ligation)
Test: Hemodynamic, morphological and echocardiographic measurements in sham and CHF rats
Format: in vivo, rat
Details: mean ± SE
Description: In order to desensitize cardiac sympathetic afferents in rats, resiniferatoxin (RTX, 1 mg; Sigma Aldrich) was dissolved in 2 ml of ethanol and mixed with 18 ml of Tween in isotonic saline. RTX (50 μg/ml) was applied twice on the entire left and right ventricles with a swab just prior to coronary ligation. The dose of RTX was determined by preliminary experiments in which we found nearly complete ablation of TRPV1-expressing cardiac nerve endings on the surface of the rat heart for more than 10 weeks. Rat surgery was performed 9-11 weeks post-MI. Rats were anesthetized with urethane (800 mg/kg ip) and α-chloralose (40 mg/kg ip). Renal sympathetic nerve activity (RSNA) and cardiac sympathetic nerve activity (CSNA) were recorded for evaluating basal renal and cardiac sympathetic tone.
More specifically, we examined TRPV1 protein expression in cardiac nerve endings from vehicle and RTX-treated rats using immunofluorescence. Experiments were performed on male Sprague-Dawley rats weighing −400 to −500 g. […] Cardiac function in all experimental animals was measured 2 and 6 weeks after MI by echocardiography (VEVO 770, Visual Sonics, Inc.) as described in (Wang et al., J. Appl. Physiol. 2010; 108:1365-1375; Wang et al. 2, Am. J. Physiol. Regul. Integr. Comp. Physiol. 2012; 320:R1260-R1270; and Wang et al. 3, J. Physiol. 2010; 588:5033-5047). […]

SMILES: C=C(C)[C@]12C[C@@H](C)[C@@]34O[C@](Cc5ccccc5)(O[C@@H]1[C@@H]3C=C(COC(=O)Cc1ccc(O)c(OC)c1)C[C@]1(O)C(=O)C(C)=C[C@@H]41)O2 [RTX, resiniferatoxin]
- Body weight (CHF + RTX (n = 25), epicardial RTX 50 μg/ml at coronary ligation, 9-11 weeks post-MI): 440 ± 8 g
- Body weight (Sham + RTX (n = 20), epicardial RTX 50 μg/ml, 9-11 weeks): 430 ± 7 g

Reference: US10729643B2, “Methods for administration and methods for treating cardiovascular diseases with resiniferatoxin” (priority 2013, dated 2020)
